According to patent US9068970B2, “Efficient and effective supplement screening for the development of chemically defined media in cell culture” (Abbvie Inc., priority 2010, dated 2015):
For at least one compound, name, drawing or mass did not settle the structure.

Key:
[1] = system: recombinant IgG producing Chinese Hamster Ovary cell line (CHO cell line #1); assay: 24-well plate media supplement screening: peak viable cell density (CellTiter 96 AQueous); format: cell-based; conditions: HTS experiments; CDM #1, relative to unsupplemented control
Protocol: (§1) 24-well plates were utilized at a working volume of 1.5 mL per well to serve as the platform for media supplement screening. An in-house, base chemically defined media (CDM #1) was used as the basal media for the purposes of the experiments. A recombinant IgG producing Chinese Hamster Ovary cell line (CHO cell line #1) was used for the media supplement screening phase of the experiments.
(§2) All 24-well plate screening experiments were designed using JMP7 commercially available statistics software (Cary, N.C.) using custom experimental options. […] The comprehensive list of media supplements evaluated for cell culture process improvement is shown below in Table 2:
(§3) Two cell culture performance indicators were measured in the high-throughput screening experiments: peak viable cell density and harvest titer. Time point samples were withdrawn from each of the respective plate wells on Days 6, 7, and 8 post inoculation and measured for their respective viable cell densities spectrophotometrically via the CellTiter 96 AQueous Solution Cell Proliferation Assay Kits™ (Promega, Madison, Wis.). […] All experimental wells supplemented with a particular combination of media compounds were compared to an unsupplemented control, with the results expressed as relative values relative to the control. […]

[2] = system: recombinant IgG producing Chinese Hamster Ovary cell line (CHO cell line #1); assay: 24-well plate media supplement screening: harvest titer (HPLC, Poros A affinity column); format: cell-based; conditions: HTS experiments; CDM #1, relative to unsupplemented control
Protocol: as §1, §2, §3
The aforementioned supplements were evaluated for improvements in cell culture technique performance.

O=[Se](O)O [Sodium selenite]
Effect on Peak VCD [1]: Decrease
Effect on Harvest Titer [2]: Decrease
